{"source": "PubChem BioAssay AID662", "about": "(National Center for Advancing Translational Sciences (NCATS), 2007)", "note": "The list shows a part of the results. Further columns of the screen follow, without active or inactive calls. Compounds called inactive in the main read-out are mostly missing here. Words in brackets tell the shape of the fitted curve; partial curves, single points and poor fits give uncertain potencies.", "data": [{"test": "Cell signaling CRE-BLA (Fsk stim)", "settings": "CHO CRE-bla reporter (cAMP response element driving beta-lactamase), forskolin EC10, beta-lactamase ratio; measured here: 460 nm blue channel", "outline": "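Cells were plated overnight at 37 °C, exposed to compound titrations plus EC10 NKH 477 for 3 h, then given CCF4 dye for 2 h at room temperature. Blue/green (460/530 nm) ratio was converted to %Activity and AC50 values calculated.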", "values": [{"molecule": "CN1CCN(c2ncnc3ccc(-c4cccc(NS(C)(=O)=O)c4)cc23)CC1", "AC50": "6.31 µM [rising, full curve]"}, {"molecule": "Cc1cc(C)nc(-n2nc(C)c(C3(O)C(=O)Nc4ccccc43)c2N)n1", "note": "(configuration not stated)", "AC50": "0.00316 µM [falling, full curve, poor fit]"}, {"molecule": "O=[n+]1c2c(n([O-])c3c1CCCC3)CCCC2", "AC50": "0.00794 µM [falling, full curve, poor fit]"}, {"molecule": "O=C(CCCCCNc1nc(=S)[nH]c2ccccc12)N1CCN(c2ccccn2)CC1", "AC50": "0.501 µM [falling, partial curve]"}, {"molecule": "Clc1cc(Cl)c(OCc2nc(-c3ccccn3)no2)cc1Cl", "AC50": "15.8 µM [rising, single point]"}, {"molecule": "COc1cccc(C2CC(c3c(F)cccc3Cl)n3nc(N)nc3N2)c1", "note": "(configuration not stated)", "AC50": "0.0158 µM [falling, full curve, poor fit]"}, {"molecule": "O=C(O)C1CCCN1c1ncccn1", "note": "(configuration not stated)", "AC50": "0.398 µM [falling, partial curve]"}, {"molecule": "COc1cc2c(cc1OC)-c1cc(=Nc3c(C)cc(C)cc3C)n(C)c(=O)n1CC2", "AC50": "2 µM [rising, full curve]"}, {"molecule": "N#CCCn1c(=O)c(-c2cccs2)nc2cnc(N3CCOCC3)nc21", "AC50": "5.01 µM [rising, partial curve]"}, {"molecule": "Cn1c(CN2CCC(C(N)=O)CC2)c(C#N)c2ccccc21", "AC50": "3.98 µM [falling, partial curve, poor fit]"}, {"molecule": "COc1ccc2[nH]cc(C(=O)CN3CCN(C(=O)c4ccco4)CC3)c2c1", "AC50": "3.98 µM [falling, full curve, poor fit]"}, {"molecule": "CC(C)Cn1c(N)c(C(=O)NCC2CCCO2)c2nc3ccccc3nc21", "note": "(configuration not stated)", "AC50": "10 µM [rising, partial curve]"}, {"molecule": "COc1ccc(-c2nc3cnc(Oc4ccccc4)nc3n(Cc3cccs3)c2=O)cc1", "AC50": "3.98 µM [rising, full curve]"}, {"molecule": "Nc1nc(-c2ccco2)nc(N2CCCCC2)n1", "AC50": "12.6 µM [rising, single point]"}, {"molecule": "COc1cccc(CN(Cc2cccnc2)S(=O)(=O)c2ccc(-n3cnnn3)c(C)c2)c1OC", "AC50": "0.00316 µM [falling, full curve, poor fit]"}, {"molecule": "CCOC(=O)C1CCN(C(=O)C2CCN(S(=O)(=O)CC)CC2)CC1", "AC50": "0.00398 µM [falling, full curve, poor fit]"}, {"molecule": "CC(C)(C)n1ncc2c(=O)n(CC(=O)OCc3ccccc3)cnc21", "AC50": "25.1 µM [rising, single point]"}, {"molecule": "Cc1ccc(Cl)cc1N1CCN(C(=O)c2cc3c(=O)n(C)c4ccccc4c3n2C)CC1", "AC50": "5.01 µM [falling, single point]"}, {"molecule": "N#CC1=C(N)S[C@H](C(=O)C23CC4CC(CC(C4)C2)C3)[C@H]1c1ccncc1", "AC50": "0.158 µM [rising, full curve]"}, {"molecule": "O=C1[C@@H]2C(Cc3ccc(O)cc3)NC3(C(=O)Nc4ccc(F)cc43)[C@@H]2C(=O)N1c1ccccc1", "note": "(some centres not stated)", "AC50": "2.51 µM [falling, partial curve]"}, {"molecule": "Cn1c(=O)c2c(nc(N3CCCCC3)n2CCNC2=NCCC2)n(C)c1=O", "AC50": "7.94 µM [falling, partial curve]"}, {"molecule": "CCOC(=O)N1CCN(C(=O)C(NC(=O)C2CCC(C)CC2)C(C)C)CC1", "note": "(configuration not stated)", "AC50": "0.398 µM [falling, partial curve]"}, {"molecule": "CCN(CC)C(=O)c1sc(NC(=O)c2ccoc2C)c(C(=O)OC)c1C", "AC50": "12.6 µM [rising, partial curve]"}, {"molecule": "Cn1c(=O)c2c(nc(Br)n2CCSc2nnnn2-c2ccccc2)n(C)c1=O", "AC50": "7.94 µM [rising, partial curve, poor fit]"}, {"molecule": "FC(F)(F)c1ccccc1-c1ccc2ncnc(NCCN3CCOCC3)c2c1", "AC50": "7.94 µM [rising, partial curve]"}, {"molecule": "COc1ccc(-c2nc3cnc(Nc4cccc(OC)c4)nc3n(C3CC3)c2=O)cc1", "AC50": "0.316 µM [rising, full curve]"}, {"molecule": "O=C(O)CCC(=O)c1ccc2ccc3cccc4ccc1c2c34", "AC50": "5.01 µM [rising, single point]"}, {"molecule": "COc1cc2cc(C(c3nnnn3C3CCCCC3)N(C)C3CCCCC3)c(=O)[nH]c2cc1OC", "note": "(configuration not stated)", "AC50": "10 µM [rising, partial curve]"}, {"molecule": "CCOC(=O)C1C(=O)NCC2CCCC21", "note": "(configuration not stated)", "AC50": "3.16 µM [rising, single point]"}, {"molecule": "CCOC(=O)c1sc2nc3n(c(=O)c2c1C)CCC(C)CC3", "note": "(configuration not stated)", "AC50": "0.2 µM [rising, full curve]"}, {"molecule": "COc1ccc(-c2cc(C(F)(F)F)nc(SCC(=O)N3CC(C)OC(C)C3)n2)cc1OC", "note": "(configuration not stated)", "AC50": "0.631 µM [rising, partial curve]"}, {"molecule": "Cc1ccc(NC(=O)CN(C)c2ccc(S(=O)(=O)N3CCN(C)CC3)cn2)cc1", "AC50": "5.01 µM [falling, single point]"}, {"molecule": "COc1ccc(-c2noc(CSc3nnc(CCc4ccccc4)n3-c3ccccc3)n2)cc1OC", "AC50": "10 µM [rising, partial curve]"}, {"molecule": "CCCN1CC=C2C(C#N)=C(N)C(C#N)(C#N)C(c3cccc(OC)c3OC)C2C1", "note": "(configuration not stated)", "AC50": "12.6 µM [rising, partial curve]"}, {"molecule": "Fc1ccc(C(OCCCc2cnc[nH]2)c2ccc(F)cc2)cc1", "AC50": "15.8 µM [falling, partial curve]"}, {"molecule": "O=c1c(-c2ccc(F)c(F)c2)nc2cncnc2n1Cc1ccccc1", "AC50": "12.6 µM [rising, partial curve]"}, {"molecule": "COC(=O)CCC(=O)Oc1ccc(OC(=O)CCC(=O)OC)cc1", "AC50": "10 µM [falling, partial curve]"}, {"molecule": "NC(=O)c1ccc(-c2ccc(Br)cc2)o1", "AC50": "10 µM [rising, partial curve]"}, {"molecule": "COCCCn1c(=O)c2ccccc2c2ccccc2c1=O", "AC50": "31.6 µM [falling, single point]"}, {"molecule": "Cc1nc2sc3c(c2c2nnc(SCC(=O)NCc4ccco4)n12)CCCC3", "AC50": "12.6 µM [rising, partial curve]"}, {"molecule": "Clc1ccc2c(c1)N=C(N1CCNCC1)c1ccccc1N2", "AC50": "31.6 µM [falling, single point]"}, {"molecule": "CCOc1nc(-c2ccc(OC)cc2)ccc1-c1noc(-c2cc(OC)c(OC)c(OC)c2)n1", "AC50": "15.8 µM [rising, single point]"}]}]}
